# Some entries share one result that the patent states for a list of compounds.
# Tested on: purified human B lymphocytes
# Assay: Antibody production, IgM and IgG ELISA of B cell supernatants
# Type: cell-based
# Conditions: CpG 1 μg/ml, 5 days; Rosiglitazone 0.5 μM, 15d-PGJ2 0.2 μM; 'up to'
# Procedure: Antibody Production: Purified human B lymphocytes (5×10^5 cells/ml) were cultured in 96-well round-bottom microtiter plates. […] Pilot experiments were performed to optimize the doses of PPARγ and RXR ligands. […] Supernatants were harvested and the concentrations of IgM and IgG were analyzed using human-specific ELISAs (Bethyl Laboratories).
compound,measurement,value
"CN(CCOc1ccc(CC2SC(=O)NC2=O)cc1)c1ccccn1 (centres unmarked) [Rosiglitazone, 5-[4-[2-[N-methyl-N-(2-pyridyl)amino]ethoxy]benzyl]thiazolidine-2,4-dione]",IgG production enhancement over CpG alone,up to 2 fold
same,IgM production enhancement over CpG alone,up to 2 fold

# From US20110300129A1, “SYSTEMS AND METHODS FOR ENHANCING VACCINE EFFICACY” (UNIVERSITY OF ROCHESTER, priority 2008, published 2011)
